Patent US20040229797A1
Results are given in words; binding and its absence hold for the method and conditions named. Some entries that bind do so weakly or less than the wild type.

Sequences of proteins named here, by UniProt entry; tags and fusion partners are left off. Residues count along the entry.
UniProt Q8BTM8, residues 2-2647: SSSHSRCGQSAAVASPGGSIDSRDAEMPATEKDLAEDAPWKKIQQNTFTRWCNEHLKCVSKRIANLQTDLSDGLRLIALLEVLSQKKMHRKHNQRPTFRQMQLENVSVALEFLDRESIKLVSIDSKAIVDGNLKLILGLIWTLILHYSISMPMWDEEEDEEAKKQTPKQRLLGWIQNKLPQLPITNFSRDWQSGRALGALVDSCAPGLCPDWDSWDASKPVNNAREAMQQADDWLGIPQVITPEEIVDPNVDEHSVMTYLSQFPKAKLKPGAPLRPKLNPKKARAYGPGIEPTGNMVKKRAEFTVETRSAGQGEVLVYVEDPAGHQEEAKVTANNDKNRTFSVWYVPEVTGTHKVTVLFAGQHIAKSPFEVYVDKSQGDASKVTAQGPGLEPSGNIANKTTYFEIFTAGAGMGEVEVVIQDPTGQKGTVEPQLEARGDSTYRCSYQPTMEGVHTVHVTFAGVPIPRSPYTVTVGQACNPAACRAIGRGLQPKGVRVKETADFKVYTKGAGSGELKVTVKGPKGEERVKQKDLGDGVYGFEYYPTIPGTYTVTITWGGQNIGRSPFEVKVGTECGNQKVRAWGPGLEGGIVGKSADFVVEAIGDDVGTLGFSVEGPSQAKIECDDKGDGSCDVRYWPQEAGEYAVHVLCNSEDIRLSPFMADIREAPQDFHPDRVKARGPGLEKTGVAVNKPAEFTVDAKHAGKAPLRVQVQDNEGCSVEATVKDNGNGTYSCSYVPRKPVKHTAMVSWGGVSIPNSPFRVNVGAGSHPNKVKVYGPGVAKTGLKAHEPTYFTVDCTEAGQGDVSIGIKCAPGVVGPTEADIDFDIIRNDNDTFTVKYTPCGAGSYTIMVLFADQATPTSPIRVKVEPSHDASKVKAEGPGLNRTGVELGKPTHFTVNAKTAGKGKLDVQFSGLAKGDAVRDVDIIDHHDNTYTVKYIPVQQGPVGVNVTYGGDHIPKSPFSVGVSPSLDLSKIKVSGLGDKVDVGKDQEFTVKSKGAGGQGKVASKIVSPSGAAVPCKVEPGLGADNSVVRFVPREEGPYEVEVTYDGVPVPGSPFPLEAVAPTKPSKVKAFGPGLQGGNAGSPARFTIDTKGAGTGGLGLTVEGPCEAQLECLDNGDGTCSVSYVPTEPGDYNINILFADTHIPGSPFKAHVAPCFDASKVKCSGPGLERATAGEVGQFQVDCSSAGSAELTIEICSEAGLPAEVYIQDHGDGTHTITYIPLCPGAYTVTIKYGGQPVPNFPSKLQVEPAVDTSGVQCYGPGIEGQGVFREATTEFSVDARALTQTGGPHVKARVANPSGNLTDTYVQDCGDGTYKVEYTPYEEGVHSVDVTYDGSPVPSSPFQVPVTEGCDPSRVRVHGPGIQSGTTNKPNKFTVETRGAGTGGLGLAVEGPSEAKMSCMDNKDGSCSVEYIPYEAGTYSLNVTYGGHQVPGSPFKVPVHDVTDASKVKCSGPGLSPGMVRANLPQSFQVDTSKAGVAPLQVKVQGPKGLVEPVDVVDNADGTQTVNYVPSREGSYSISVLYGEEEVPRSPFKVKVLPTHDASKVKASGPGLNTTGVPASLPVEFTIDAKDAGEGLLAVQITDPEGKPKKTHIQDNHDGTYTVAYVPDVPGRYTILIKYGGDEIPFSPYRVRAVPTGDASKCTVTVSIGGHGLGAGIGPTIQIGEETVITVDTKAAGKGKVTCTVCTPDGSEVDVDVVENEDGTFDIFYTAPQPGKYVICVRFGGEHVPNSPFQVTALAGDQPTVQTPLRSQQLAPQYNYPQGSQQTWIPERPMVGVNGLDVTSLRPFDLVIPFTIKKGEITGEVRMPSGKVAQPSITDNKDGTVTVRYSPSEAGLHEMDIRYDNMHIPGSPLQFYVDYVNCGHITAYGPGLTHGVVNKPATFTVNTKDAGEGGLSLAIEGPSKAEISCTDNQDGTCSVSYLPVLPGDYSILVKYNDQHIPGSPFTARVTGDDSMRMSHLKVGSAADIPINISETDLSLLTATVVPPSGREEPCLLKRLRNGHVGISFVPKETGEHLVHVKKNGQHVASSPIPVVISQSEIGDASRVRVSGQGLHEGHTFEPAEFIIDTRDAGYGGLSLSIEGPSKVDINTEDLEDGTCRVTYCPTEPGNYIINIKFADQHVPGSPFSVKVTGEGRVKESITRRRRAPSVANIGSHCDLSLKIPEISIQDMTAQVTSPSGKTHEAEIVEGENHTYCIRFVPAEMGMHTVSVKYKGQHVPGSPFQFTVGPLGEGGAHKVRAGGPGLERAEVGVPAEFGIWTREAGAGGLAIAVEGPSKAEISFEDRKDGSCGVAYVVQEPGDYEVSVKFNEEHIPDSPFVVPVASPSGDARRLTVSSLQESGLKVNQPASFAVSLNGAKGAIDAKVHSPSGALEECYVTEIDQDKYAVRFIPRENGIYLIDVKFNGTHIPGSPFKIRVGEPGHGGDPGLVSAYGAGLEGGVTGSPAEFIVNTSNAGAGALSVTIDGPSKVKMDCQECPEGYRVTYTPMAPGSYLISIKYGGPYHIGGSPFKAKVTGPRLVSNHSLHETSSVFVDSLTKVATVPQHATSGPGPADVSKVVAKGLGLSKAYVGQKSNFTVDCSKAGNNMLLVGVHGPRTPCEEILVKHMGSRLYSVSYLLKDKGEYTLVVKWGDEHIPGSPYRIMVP

Target: Filamin 1 (clone from the mouse E11 whole embryo library, yeast two-hybrid prey) (mouse) (UniProt Q8BTM8)
Assay: yeast two-hybrid screen, mouse E11 whole embryo library as prey

binding: binds
B1: common C-terminal region of FILIPs (residues 508-965 of the deduced amino acid sequence of S-FILIP), yeast two-hybrid bait (protein, not shown: large carriers)
chain: MEEETKNKNMGREVLNLTKELELSKRYSRALRPSGNGRRMVDVPVASTGVQTEAVCGDAAEEETPAVFIRKSFQEENHIMSNLRQVGLKKPMERSSVLDRYPPAANELTMRKSWIPWMRKRENGPSTPQEKGPRPNQGAGHPGELVLAPKQGQPLHIRVTPDHENSTATLEITSPTSEEFFSSTTVIPTLGNQKPRITIIPSPNVMSQKPKSADPTLGPERAMSPVTITTISREKSPEGGRSAFADRPASPIQIMTVSTSAAPTEIAVSPESQEVPMGRTILKVTPEKQTVPAPVRKYNSNANIITTEDNKIHIHLGSQFKRSPGPAAEGVSPVITVRPVNVTAEKEVSTGTVLRSPRNHLSSRPGASKVTSTITITPVTTSSTRGTQSVSGQDGSSQRPTPTRIPMSKGMKAGKPVVAASGAGNLTKFQPRAETQSMKIELKKSAASSTASLGGGKG
